US20150152166A1
These are yes or no findings as the source states them, for the method shown. Some binding calls cover weakened binding; strength is not graded here.

By UniProt entry, the sequences of proteins in these tests, tags left out. Residues count along the entry.
UniProt P06473, residues 32-906: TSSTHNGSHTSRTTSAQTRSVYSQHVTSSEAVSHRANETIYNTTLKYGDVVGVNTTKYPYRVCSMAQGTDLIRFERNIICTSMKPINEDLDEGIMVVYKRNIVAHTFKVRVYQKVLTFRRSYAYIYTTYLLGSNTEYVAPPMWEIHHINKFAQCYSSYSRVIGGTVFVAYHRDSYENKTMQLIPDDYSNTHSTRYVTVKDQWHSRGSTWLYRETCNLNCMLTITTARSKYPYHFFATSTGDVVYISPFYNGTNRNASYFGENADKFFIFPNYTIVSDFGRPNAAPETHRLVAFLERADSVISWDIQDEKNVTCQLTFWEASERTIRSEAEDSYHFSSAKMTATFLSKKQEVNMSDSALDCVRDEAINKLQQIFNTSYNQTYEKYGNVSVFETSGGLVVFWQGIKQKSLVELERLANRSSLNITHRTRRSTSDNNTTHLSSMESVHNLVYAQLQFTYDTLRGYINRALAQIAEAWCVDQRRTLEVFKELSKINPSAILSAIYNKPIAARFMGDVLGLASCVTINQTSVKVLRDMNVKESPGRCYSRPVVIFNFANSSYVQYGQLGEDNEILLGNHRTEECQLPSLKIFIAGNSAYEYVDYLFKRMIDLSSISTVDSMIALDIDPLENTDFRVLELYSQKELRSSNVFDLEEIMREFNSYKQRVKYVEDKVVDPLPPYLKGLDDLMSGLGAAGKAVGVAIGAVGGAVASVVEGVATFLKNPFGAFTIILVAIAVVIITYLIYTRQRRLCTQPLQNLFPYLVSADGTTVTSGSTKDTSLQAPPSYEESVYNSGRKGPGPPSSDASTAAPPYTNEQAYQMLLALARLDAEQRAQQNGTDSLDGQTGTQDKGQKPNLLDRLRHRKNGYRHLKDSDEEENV

Columns and labels:
[1] = target: T1, CMV gp116 epitope AD2 site peptide … (CMV (human cytomegalovirus)); assay: ELISA on UV-inactivated CMV virus with soluble AD2 peptide as competitor
T1 sequence (peptide): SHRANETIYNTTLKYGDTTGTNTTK

[2] = target: HCMV glycoprotein B (gB complex of gp58 and gp116) on CMV virus (human cytomegalovirus) (UniProt P06473); assay: ELISA on UV-inactivated CMV virus coated on a plate, HRP anti-human detection

B1: 2F10 human anti-CMV antibody (antibody, V domains shown)
VH: QVHLVESGGGVVQPGRALRLSCAATGFTFSNHGIHWVRQAPGKGLEWLAVISSDGDDDRYADSVKGRFSVSRDNSKNTVHLQMNGLRPDDTAIYFCARDGRCGEPKCYSGLPDYWGRGTLVTVSS
VL: EIVLTQSPATLSLSPGDRATLSCRASQSVGGYLAWYQQKPGQAPRLLLYDASNRATGIPARFSGSGSGTDFTLTISSLEPEDFALYYCLQRNTWPPLTFGGGTKVEIKR
binding [1]: binds | binding [2]: binds

B2: 4P12 human anti-CMV antibody (antibody, V domains shown)
VH: QVQLVESGGGVIQPGRSLRLSCVASKFIFSNHGIHWVRQAPGKGLEWVAVISKDGTNAHYADSVRGRFSISRDNSKDTVFLEMRSLRPEDTAVYYCAREGRCIEENCYSGQIDYWGQGSLVTVSS
VL: EILLTQSPATLSLSPGERATLSCRASQSVGRYMAWYQQRPGQAPRLLIYDASIRATGIPARFSGSGSGTDFTLTISSLQPEDFAIYYCQQRSSWPPLTFGGGTKVEIKR
binding [1]: binds | binding [2]: binds
